We go through 34 molecules from PubChem BioAssay AID1487 (National Center for Advancing Translational Sciences (NCATS), 2009).

This is one part of the list. The main result of the screen is listed elsewhere. These columns were measured beside it and carry no call. Most of these compounds were active or inconclusive in the main read-out, so they are no random draw. Words in brackets tell the shape of the fitted curve; partial curves, single points and poor fits give uncertain potencies.

The experiment can be described thus: qHTS Assay for Modulators of Lamin A Splicing. The following applies: HeLa LMNA splicing GFP/RFP minigene ratio, 48 h. The method, boiled down: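 S3 HeLa cells stably expressing lamin A-EGFP splicing minigene plus DsRed2, 600 cells/well, 48 h compound exposure at 37C. Laser-scanning cytometry; analysed as GFP (500-530 nm)/RFP (575-640 nm) total intensity ratio; 0.5% DMSO vehicle.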

Where [1] appears, read: measured here: RFP viability control channel.
The mark [2] stands for this setting: measured here: GFP splicing reporter channel.

As to `COc1ccc(NC(=O)CN2CCN(c3nc(-c4cccc(OC)c4)cs3)CC2)cc1`, the AC50 under setting [1] was 2.51 µM [rising, partial curve, poor fit]. In the case of `O=C(CCl)Nc1cccc2ncccc12`, the AC50 is, setting by setting: under setting [2], 35.5 µM [falling, single point]; under setting [1], 35.5 µM [falling, single point]. In the case of `O/N=C\c1ccccc1Oc1ccc(F)cc1`, the AC50 was 0.501 µM [falling, full curve, poor fit] under setting [2] and 0.794 µM [falling, full curve, poor fit] under setting [1]. With `Cc1nc(SCc2cc(=O)c3cccc(F)c3[nH]2)n[nH]1`, the AC50 under setting [1] is 35.5 µM [rising, single point]. Regarding `COc1ccccc1Oc1ccc2c(c1)C(=O)N(c1cccc3ncccc13)C2=O`, under setting [1], the AC50 was 12.6 µM [rising, single point]. `CCN1CCN(c2ncc(C(=O)Nc3cc(Cl)ccc3OC)c3ccccc23)CC1`: the AC50 by setting is: under setting [2], 15.8 µM [rising, single point]; under setting [1], 22.4 µM [rising, single point]. On to `Cc1cccc(-c2n[nH]c(=S)n2-c2ccccc2)c1[N+](=O)[O-]`, for which the AC50 is, setting by setting: under setting [2], 4.47 µM [falling, single point]; under setting [1], 5.62 µM [falling, single point]. As for `O=C(O)c1ccc(N2C(=O)CC(SC(=Nc3ccccc3)Nc3ccccc3)C2=O)cc1` (stereo unspecified), the AC50 under setting [1] was 17.8 µM [rising, single point]. The same measure, in the same setting: with `CC(C)c1ccc(NC(=O)CSc2ncnc3c2sc2ccccc23)cc1` the figure was 1.41 µM [rising, partial curve]; with `COc1ccccc1NC(=O)c1ccc(NC(=O)CN(C)Cc2ccccc2F)cc1`, 35.5 µM [falling, single point]. Take `COc1ccccc1NCC(=O)NNC(C)C(=O)Nc1cccc(Cl)c1` (stereo unspecified): the AC50 is, setting by setting: under setting [2], 0.158 µM [rising, full curve, poor fit]; under setting [1], 0.158 µM [rising, full curve, poor fit]. Take `Cc1ccc(S(=O)(=O)N(C)c2ccc(C(=O)N3CCCCC3)cc2)cc1`: the AC50 was 0.0282 µM [rising, full curve, poor fit] under setting [2] and 35.5 µM [rising, single point] under setting [1]. Turning to `Cc1ccc2nc(NCc3ccccc3)[nH]c2c1`, the AC50 is, setting by setting: under setting [2], 35.5 µM [rising, single point]; under setting [1], 11.2 µM [rising, partial curve]. As for `CC(C)N=c1cc2n(-c3ccc(Cl)cc3)c3ccccc3nc-2cc1Nc1ccc(Cl)cc1`, the AC50 is, setting by setting: under setting [2], 0.178 µM [falling, full curve, poor fit]; under setting [1], 11.2 µM [falling, single point]. For the molecule `CCOC(=O)Cn1c(=O)n(-c2ccccc2OC)c2nc(-c3ccccc3)nc(C(N)=O)c21`, the AC50 under setting [1] was 0.112 µM [falling, full curve, poor fit]. Same read-out and setting: the same measure for `O=C(Nc1ccc(S(=O)(=O)Nc2ncccn2)cc1)c1ccc(Br)o1`: 0.0794 µM [falling, full curve, poor fit].

On to `O=C(O)c1ccccc1C(=O)Nc1n[nH]c(=S)s1`, for which the AC50 under setting [1] is 5.62 µM [rising, single point].

Take `COc1ccnc(Oc2ccc(F)cc2)c1C(=O)N/C=N/OCc1ccc(F)cc1Cl`: under setting [1], the AC50 was 35.5 µM [rising, single point]. Turning to `CCCN(CC1CC1)C(=O)CCc1nnc(C(OC)c2ccccc2)o1` (stereo unspecified), the AC50 is, setting by setting: under setting [2], 5.62 µM [falling, single point]; under setting [1], 5.01 µM [falling, single point]. As to `C=CCNC(=S)/C(=C(/[O-])c1ccccc1Br)[n+]1ccccc1`, under setting [1], the AC50 was 0.178 µM [rising, full curve, poor fit]. Regarding `COc1cccc(NS(=O)(=O)c2ccc3[nH]c4c(c3c2)CCCCCC4)c1`, the AC50 under setting [2] was 35.5 µM [falling, single point] and the AC50 under setting [1] is 35.5 µM [falling, single point]. Consider `S=C(NC1CCCCC1)N1CCc2ccccc2C1`, for which the AC50 was 20 µM [rising, partial curve] under setting [2] and 14.1 µM [rising, partial curve] under setting [1]. Take `CCn1c(N2CCN(S(=O)(=O)c3ccccc3C(F)(F)F)CC2)nc2ccccc21`: under setting [1], the AC50 was 31.6 µM [rising, single point]. On the same count and under the same terms, the same measure for `O=C(Nc1ccc(Cl)c(Cl)c1)Nc1nnc(-c2ccncc2)s1`: 17.8 µM [rising, single point]. On the same count and under the same terms, the same measure for `O=C(O)COn1c(-c2ccccc2)nc2ccc([N+](=O)[O-])cc21`: 0.0282 µM [falling, full curve, poor fit]; for `COc1cccc(Nc2nnc(SCC3CCCCO3)s2)c1` (stereo unspecified): 0.0355 µM [falling, full curve, poor fit]. `C[C@H]1Cc2c(-c3ccccc3)nc3c(c2CO1)CN(C(=O)c1cccnc1)CC3`: the AC50 runs as follows: under setting [2], 4.47 µM [rising, partial curve, poor fit]; under setting [1], 6.31 µM [rising, partial curve, poor fit]. For `CCCCC(=O)Nc1nc(C)c(-c2csc(Nc3cc(OC)ccc3OC)n2)s1`, the AC50 reads like this: under setting [2], 22.4 µM [falling, single point]; under setting [1], 8.91 µM [falling, partial curve, poor fit].

As to `O=C(CNCc1cccs1)Nc1ccc(N2CCCCCC2)cc1`, the AC50 is 10 µM [falling, partial curve, poor fit] under setting [2] and 0.126 µM [falling, full curve] under setting [1]. Consider `CN1C(=O)C(O)(CC(=O)c2ccccc2O)c2cc(Br)ccc21` (stereo unspecified), for which, under setting [1], the AC50 was 7.08 µM [rising, partial curve, poor fit].

As for `CCOC(=O)c1c(C2CC2)csc1NC(=O)CSCc1c(C)noc1C`, under setting [1], the AC50 was 35.5 µM [rising, single point]. For the molecule `O=c1ccn(Cc2ccc(F)cc2)c2ccnc(C(F)(F)F)c12`, the AC50 runs as follows: under setting [2], 8.91 µM [rising, partial curve]; under setting [1], 11.2 µM [rising, partial curve]. Take `O=C(CCCc1nc(-c2ccccc2)no1)NCc1cccnc1`: the half-maximal activity concentration (AC50) under setting [2] was 14.1 µM [rising, partial curve] and the AC50 under setting [1] is 12.6 µM [rising, partial curve]. Consider `c1ccc(CNC2=NCCCC2)cc1`, for which the AC50 under setting [2] is 0.562 µM [falling, full curve] and the AC50 under setting [1] is 0.708 µM [falling, full curve].
